The values that follow come from publication doi:10.1101/617910.

Chains of the proteins cited; added tags and fusions are not shown. Lines headed by an entry give the natural chain unless they say otherwise; changes in a name come on top.
UniProt P0C0W9: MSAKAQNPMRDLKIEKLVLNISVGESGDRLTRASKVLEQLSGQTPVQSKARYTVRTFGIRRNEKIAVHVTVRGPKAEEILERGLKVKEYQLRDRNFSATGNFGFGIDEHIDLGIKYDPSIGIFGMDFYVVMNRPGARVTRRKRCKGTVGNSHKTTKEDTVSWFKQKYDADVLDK
UniProt P41819: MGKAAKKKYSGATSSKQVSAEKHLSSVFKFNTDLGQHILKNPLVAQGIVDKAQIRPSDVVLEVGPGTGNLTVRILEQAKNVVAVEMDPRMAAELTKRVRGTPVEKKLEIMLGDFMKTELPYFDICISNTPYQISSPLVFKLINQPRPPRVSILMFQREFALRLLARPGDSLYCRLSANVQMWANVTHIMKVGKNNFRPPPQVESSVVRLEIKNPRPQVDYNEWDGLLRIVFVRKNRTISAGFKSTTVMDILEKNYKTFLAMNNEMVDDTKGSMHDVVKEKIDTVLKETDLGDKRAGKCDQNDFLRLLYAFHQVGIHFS

No constants are given. Whether binding was seen depends on the method and setting. Binding calls can cover weak binding; strength is not graded here.

In this test the target is Rpl11 (yeast (endogenous in the purified pre-ribosomes)) (UniProt P0C0W9). The test can be described thus: cryo-EM structure.

In the case of Dim1 (from UniProt P41819 1-318), the binding entry was “binds”.
